Data taken from publication PMC9569550.
Results are given in words; binding and its absence hold for the method and conditions named. In cells and extracts the contact can be indirect. Some binding calls cover weakened binding; strength is not graded here.

Chains of the proteins cited; added tags and fusions are not shown.
UniProt Q9NPA3: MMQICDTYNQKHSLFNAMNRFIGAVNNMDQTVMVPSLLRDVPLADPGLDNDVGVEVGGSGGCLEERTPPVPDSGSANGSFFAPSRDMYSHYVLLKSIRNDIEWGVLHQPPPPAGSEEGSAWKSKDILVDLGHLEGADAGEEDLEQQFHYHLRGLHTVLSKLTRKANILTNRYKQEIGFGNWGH
UniProt P01106: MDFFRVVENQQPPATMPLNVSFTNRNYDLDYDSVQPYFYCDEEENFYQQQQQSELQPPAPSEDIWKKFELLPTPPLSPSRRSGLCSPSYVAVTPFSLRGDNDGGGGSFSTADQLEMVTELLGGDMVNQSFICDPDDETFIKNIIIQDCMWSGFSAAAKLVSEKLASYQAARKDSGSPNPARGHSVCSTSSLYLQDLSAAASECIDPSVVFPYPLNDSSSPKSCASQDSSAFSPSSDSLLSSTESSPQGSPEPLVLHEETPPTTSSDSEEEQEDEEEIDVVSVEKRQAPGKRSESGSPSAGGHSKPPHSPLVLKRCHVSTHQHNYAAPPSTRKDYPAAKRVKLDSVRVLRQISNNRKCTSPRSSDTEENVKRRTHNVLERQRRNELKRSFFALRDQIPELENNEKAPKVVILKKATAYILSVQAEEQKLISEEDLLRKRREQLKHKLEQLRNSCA

Target: midline1 interacting protein 1 (MID1IP1) (human (endogenous in HCT116)) (UniProt Q9NPA3)
Assay: co-IP; lysates of HCT116 p53+/+ cells, untreated or treated with TA3 for 24 h; incubated overnight with MID1IP1 antibody, Protein A or G beads at 4 °C for 5 h, washed three times with lysis buffer, Western blot

- binding: binds
Substance: c-Myc (from UniProt P01106 1-454)
